What all share (assay): co-IP; AKT1 pull down samples and reverse immunoprecipitation of over-expressed baits (BUB3, GRB2) from HEK293 cells; western blotting with antibodies against AKT1 and the relevant baits
(In general: In western blotting, separated proteins are transferred to a membrane and probed.)

Sequences of proteins named here, by UniProt entry; tags and fusion partners are left off.
UniProt P31749: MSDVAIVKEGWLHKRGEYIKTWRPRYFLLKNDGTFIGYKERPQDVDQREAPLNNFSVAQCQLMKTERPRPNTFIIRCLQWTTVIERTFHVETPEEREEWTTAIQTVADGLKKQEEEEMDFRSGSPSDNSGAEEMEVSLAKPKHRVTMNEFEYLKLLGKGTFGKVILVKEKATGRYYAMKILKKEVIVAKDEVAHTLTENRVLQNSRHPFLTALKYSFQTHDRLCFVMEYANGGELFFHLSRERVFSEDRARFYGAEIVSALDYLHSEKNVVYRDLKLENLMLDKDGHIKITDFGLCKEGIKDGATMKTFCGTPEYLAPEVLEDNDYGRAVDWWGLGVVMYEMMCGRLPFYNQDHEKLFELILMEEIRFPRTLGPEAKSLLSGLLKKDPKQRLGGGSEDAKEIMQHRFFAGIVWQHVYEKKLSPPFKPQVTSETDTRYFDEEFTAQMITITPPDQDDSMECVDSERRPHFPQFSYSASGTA
UniProt O43684: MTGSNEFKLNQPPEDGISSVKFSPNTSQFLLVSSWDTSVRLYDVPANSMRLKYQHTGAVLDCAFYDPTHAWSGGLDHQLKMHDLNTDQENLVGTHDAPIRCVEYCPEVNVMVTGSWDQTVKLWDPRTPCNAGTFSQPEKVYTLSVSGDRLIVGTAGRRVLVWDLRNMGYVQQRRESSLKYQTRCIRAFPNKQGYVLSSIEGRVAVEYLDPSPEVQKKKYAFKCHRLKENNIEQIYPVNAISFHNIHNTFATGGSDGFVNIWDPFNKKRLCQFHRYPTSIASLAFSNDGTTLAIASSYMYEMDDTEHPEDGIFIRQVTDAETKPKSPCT
UniProt P62993: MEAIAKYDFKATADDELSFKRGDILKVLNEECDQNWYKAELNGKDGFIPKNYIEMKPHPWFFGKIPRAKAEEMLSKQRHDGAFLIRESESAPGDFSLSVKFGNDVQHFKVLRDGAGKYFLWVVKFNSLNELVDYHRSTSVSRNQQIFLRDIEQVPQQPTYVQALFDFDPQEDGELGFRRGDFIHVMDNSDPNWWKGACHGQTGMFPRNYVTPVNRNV

Experiment [1] concerns the target AKT1 with C-terminal Strep and HA tags (UniProt P31749).
In experiment [2] the target is BUB3, over-expressed bait (UniProt O43684).
In experiment [3] the target is GRB2, over-expressed bait (UniProt P62993).

These are yes or no findings as the source states them, for the method shown. Binding seen in cells or lysates may run through a third protein. Some results given as binding are weak or reduced against the parent protein; the word gives no strength.

Results on three substances are retold here after article PMC5932847.

In the case of GRB2 (from UniProt P62993 1-217), the binding entry in experiment [1] is given as “binds”. On the same count and under the same terms, the same measure for BUB3 (from UniProt O43684 1-328): “binds”. In the case of “AKT1 detected in the BUB3 and GRB2 pulldown samples (from UniProt P31749 1-480) (enzyme)”, the binding entry in experiment [2] and in experiment [3] was “binds” each time.
